Measurements reported in patent US11351179B1, “Pharmaceutical compositions and methods for treatment of psychiatric disorders” (LA PharmaTech Inc., priority 2021, dated 2022).
At least one structure is not confirmed: it was looked up by name or label, or the drawing left a doubt.

Test system: mild chronic depression and anxiety induced sleep disorder
Assay: Clinical case: patient with mild chronic depression and anxiety induced sleep disorder treated once daily
Type: in vivo, human
Conditions: citalopram and lorazepam together for 3 months before the composition
Protocol: A patient was diagnosed with mild chronic depression and anxiety induced sleep disorder and was treated with citalopram and lorazepam for 3 months. […] Then they were treated with a composition of folic acid (0.19 mg) and azelastine (2 mg) once daily. […] The inventors believe the hypothesis as explained in Example 1 above is applicable here as well. In this case, the composition of two mechanisms of action provided a new solution for treating their chronic depression and insomnia which could not be treated with other options, such traditional SSRIs, NSRIs, benzodiazepines, and the like alone.

`CN(C)CCCC1(c2ccc(F)cc2)OCc2cc(C#N)ccc21` (stereo not shown) [citalopram] was tested, and the “improvement of symptoms on prior treatment” value was “never improved to the level of their satisfaction”.
